Measured data: PubChem BioAssay AID1259308 (NCATS, 2017)
Shown is an unselected part of about 59,000 reagents. About 1,510 of all reagents (2.6%) count as active. 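Calls use total luciferase alone and ignore viability, so some active siRNAs may act by altering cell number.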 A number with no mark means an inactive call. Reagents against one gene are numbered here. Not all columns of the deposit are shown.

Aim: 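Knock-downs that increase output of a recombinant reporter protein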 (primary screen)
Cell system: human HEK293 embryonic kidney cells stably expressing firefly luciferase (HEK-CMV-Luc2-Hygro)
Knock-down reagent: single siRNA against human genes, 0.8 pmol siRNA per well
Timing: 72 h
Read-out: 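Reporter luminescence and viable-cell signal on separate replicate plates, given as percent of non-targeting control and median/MAD z-scores, plus per-cell luciferase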
Direction: total luciferase, z-score: higher = more reporter protein produced
Hit rule: 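An siRNA counts as active if its total luciferase robust z-score exceeds 3; genes with two or more such siRNAs out of three were retested with fresh siRNAs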
Meaning of the calls: active = raised luciferase; inactive = no rise

AHCY #1: total luciferase, z-score = -0.165
AHCY #2: total luciferase, z-score = 2.7
AHCY #3: total luciferase, z-score = 1.4
DIRC3 #1: total luciferase, z-score = 0.566
DIRC3 #2: total luciferase, z-score = -1.37
DIRC3 #3: total luciferase, z-score = 3.14 (active)
ADORA1 #1: total luciferase, z-score = 1.17
ADORA1 #2: total luciferase, z-score = -0.314
ADORA1 #3: total luciferase, z-score = 0.645
FAT3 #1: total luciferase, z-score = 0.212
FAT3 #2: total luciferase, z-score = -0.767
FAT3 #3: total luciferase, z-score = -0.276
B9D2 #1: total luciferase, z-score = 0.0512
B9D2 #2: total luciferase, z-score = -1.29
B9D2 #3: total luciferase, z-score = 0.28

Targets listed so far whose gene name starts with B or b:
B9D2 #1: total luciferase, z-score = 0.0512
B9D2 #2: total luciferase, z-score = -1.29
B9D2 #3: total luciferase, z-score = 0.28

The results go on.
DHX36 #1: total luciferase, z-score = -0.095
DHX36 #2: total luciferase, z-score = -0.108
DHX36 #3: total luciferase, z-score = 0.461
ELP4 #1: total luciferase, z-score = 0.0446
ELP4 #2: total luciferase, z-score = -0.339
ELP4 #3: total luciferase, z-score = 1.05
LOC732226 (retired record) #1: total luciferase, z-score = 0.751
LOC732226 (retired record) #2: total luciferase, z-score = 2.75
LOC732226 (retired record) #3: total luciferase, z-score = -0.321
ANKS1B #1: total luciferase, z-score = 0.0603
ANKS1B #2: total luciferase, z-score = -1.94
ANKS1B #3: total luciferase, z-score = -0.528
NAXE #1: total luciferase, z-score = 0.326
NAXE #2: total luciferase, z-score = 3.29 (active)
NAXE #3: total luciferase, z-score = -0.631
EIF2S2 #1: total luciferase, z-score = -2.03
EIF2S2 #2: total luciferase, z-score = -2.89
EIF2S2 #3: total luciferase, z-score = -2.7
ASB1 #1: total luciferase, z-score = -0.925
ASB1 #2: total luciferase, z-score = -0.562
ASB1 #3: total luciferase, z-score = -0.021
ZNF367 #1: total luciferase, z-score = 0.00993
ZNF367 #2: total luciferase, z-score = -1.01
ZNF367 #3: total luciferase, z-score = -0.697
MYL6P5 #1: total luciferase, z-score = -1.15
MYL6P5 #2: total luciferase, z-score = -0.751
MYL6P5 #3: total luciferase, z-score = 0.527
